Laboratory results published in article PMC3577660.
These are yes or no findings as the source states them, for the method shown. Binding seen in cells or lysates may run through a third protein.

Biological target: eukaryotic initiation factor eIF4E (human (endogenous in Jurkat)), P06730
Test: pull-down; 7-methyl GTP-sepharose 4B beads (cap analogue, holds eIF4E) incubated with 250 ug protein of Jurkat lysate in 500 ul lysis buffer (50 mM HEPES pH 7.5, 150 mM NaCl, 1% Triton X-100) for 2 h at 4°C, Western blot; cells non-irradiated or 24 h after 10 Gy
Details: remark: other sources report otherwise

B1: death associated protein 5, P78344 1-907 (protein)
chain: MESAIAEGGASRFSASSGGGGSRGAPQHYPKTAGNSEFLGKTPGQNAQKWIPARSTRRDDNSAANNSANEKERHDAIFRKVRGILNKLTPEKFDKLCLELLNVGVESKLILKGVILLIVDKALEEPKYSSLYAQLCLRLAEDAPNFDGPAAEGQPGQKQSTTFRRLLISKLQDEFENRTRNVDVYDKRENPLLPEEEEQRAIAKIKMLGNIKFIGELGKLDLIHESILHKCIKTLLEKKKRVQLKDMGEDLECLCQIMRTVGPRLDHERAKSLMDQYFARMCSLMLSKELPARIRFLLQDTVELREHHWVPRKAFLDNGPKTINQIRQDAVKDLGVFIPAPMAQGMRSDFFLEGPFMPPRMKMDRDPLGGLADMFGQMPGSGIGTGPGVIQDRFSPTMGRHRSNQLFNGHGGHIMPPTQSQFGEMGGKFMKSQGLSQLYHNQSQGLLSQLQGQSKDMPPRFSKKGQLNADEISLRPAQSFLMNKNQVPKLQPQITMIPPSAQPPRTQTPPLGQTPQLGLKTNPPLIQEKPAKTSKKPPPSKEELLKLTETVVTEYLNSGNANEAVNGVREMRAPKHFLPEMLSKVIILSLDRSDEDKEKASSLISLLKQEGIATSDNFMQAFLNVLDQCPKLEVDIPLVKSYLAQFAARAIISELVSISELAQPLESGTHFPLFLLCLQQLAKLQDREWLTELFQQSKVNMQKMLPEIDQNKDRMLEILEGKGLSFLFPLLKLEKELLKQIKLDPSPQTIYKWIKDNISPKLHVDKGFVNILMTSFLQYISSEVNPPSDETDSSSAPSKEQLEQEKQLLLSFKPVMQKFLHDHVDLQVSALYALQVHCYNSNFPKGMLLRFFVHFYDMEIIEEEAFLAWKEDITQEFPGKGKALFQVNQWLTWLETAEEEESEEEAD
In the case of B1, the binding is reported as “no binding”.
